# Data published in article PMC5600724.
# These are yes or no findings as the source states them, for the method shown. Binding can be weak; no strength is given.
# Target: recombinant Plasmodium vivax apical membrane antigen 1 ectodomain (rPvAMA1) (Plasmodium vivax)
# Assay: far-Western, overlay or dot blot; Western blot binding assay: 10 ug rPvAMA1 run on non-reducing 12% SDS-PAGE, blotted on nitrocellulose strips, probed with ~10^9 phage particles; HRP anti-M13 antibody, Opti-4CN; both purified
row,Binder,binding
1,DLTFTVNPLSKA [PdV1 phage-displayed dodecapeptide],binds
2,WHWSWWNPNQLT [PdV2 phage-displayed dodecapeptide],binds weakly
3,TSVSYINNRHNL [PdV3 phage-displayed dodecapeptide],binds weakly

# Target: recombinant Plasmodium vivax apical membrane antigen 1 ectodomain (rPvAMA1) (Plasmodium vivax)
# Assay: phage display biopanning; three rounds on refolded rPvAMA1 (50 ug) coated directly on a 96-well plate; Ph.D.-12 library (~10^11 particles) in TBST, 1 h room temperature; elution with 0.2 M glycine-HCl pH 2.2; clones sequenced after round 3; both purified
row,Binder,binding
1,DLTFTVNPLSKA [PdV1 phage-displayed dodecapeptide],binds
2,WHWSWWNPNQLT [PdV2 phage-displayed dodecapeptide],binds
3,TSVSYINNRHNL [PdV3 phage-displayed dodecapeptide],binds
